Measurements: the supplement of paper PMC11006884
This is a selection; strong and weak results do not stand in their true shares.

Sequences of proteins named here, by UniProt entry; tags and fusion partners are left off. A change or cut given only in a name is not applied to a line headed by its entry.
UniProt Q5TC12: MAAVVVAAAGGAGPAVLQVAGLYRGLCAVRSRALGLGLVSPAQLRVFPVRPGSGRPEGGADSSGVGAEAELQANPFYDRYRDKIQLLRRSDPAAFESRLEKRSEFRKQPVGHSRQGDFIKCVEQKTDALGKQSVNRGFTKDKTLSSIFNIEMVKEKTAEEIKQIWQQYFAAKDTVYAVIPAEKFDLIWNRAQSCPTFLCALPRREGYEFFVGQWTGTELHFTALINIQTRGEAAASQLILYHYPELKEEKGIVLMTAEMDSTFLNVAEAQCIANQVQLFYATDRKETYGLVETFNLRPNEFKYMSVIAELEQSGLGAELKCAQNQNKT
UniProt Q5T8A7: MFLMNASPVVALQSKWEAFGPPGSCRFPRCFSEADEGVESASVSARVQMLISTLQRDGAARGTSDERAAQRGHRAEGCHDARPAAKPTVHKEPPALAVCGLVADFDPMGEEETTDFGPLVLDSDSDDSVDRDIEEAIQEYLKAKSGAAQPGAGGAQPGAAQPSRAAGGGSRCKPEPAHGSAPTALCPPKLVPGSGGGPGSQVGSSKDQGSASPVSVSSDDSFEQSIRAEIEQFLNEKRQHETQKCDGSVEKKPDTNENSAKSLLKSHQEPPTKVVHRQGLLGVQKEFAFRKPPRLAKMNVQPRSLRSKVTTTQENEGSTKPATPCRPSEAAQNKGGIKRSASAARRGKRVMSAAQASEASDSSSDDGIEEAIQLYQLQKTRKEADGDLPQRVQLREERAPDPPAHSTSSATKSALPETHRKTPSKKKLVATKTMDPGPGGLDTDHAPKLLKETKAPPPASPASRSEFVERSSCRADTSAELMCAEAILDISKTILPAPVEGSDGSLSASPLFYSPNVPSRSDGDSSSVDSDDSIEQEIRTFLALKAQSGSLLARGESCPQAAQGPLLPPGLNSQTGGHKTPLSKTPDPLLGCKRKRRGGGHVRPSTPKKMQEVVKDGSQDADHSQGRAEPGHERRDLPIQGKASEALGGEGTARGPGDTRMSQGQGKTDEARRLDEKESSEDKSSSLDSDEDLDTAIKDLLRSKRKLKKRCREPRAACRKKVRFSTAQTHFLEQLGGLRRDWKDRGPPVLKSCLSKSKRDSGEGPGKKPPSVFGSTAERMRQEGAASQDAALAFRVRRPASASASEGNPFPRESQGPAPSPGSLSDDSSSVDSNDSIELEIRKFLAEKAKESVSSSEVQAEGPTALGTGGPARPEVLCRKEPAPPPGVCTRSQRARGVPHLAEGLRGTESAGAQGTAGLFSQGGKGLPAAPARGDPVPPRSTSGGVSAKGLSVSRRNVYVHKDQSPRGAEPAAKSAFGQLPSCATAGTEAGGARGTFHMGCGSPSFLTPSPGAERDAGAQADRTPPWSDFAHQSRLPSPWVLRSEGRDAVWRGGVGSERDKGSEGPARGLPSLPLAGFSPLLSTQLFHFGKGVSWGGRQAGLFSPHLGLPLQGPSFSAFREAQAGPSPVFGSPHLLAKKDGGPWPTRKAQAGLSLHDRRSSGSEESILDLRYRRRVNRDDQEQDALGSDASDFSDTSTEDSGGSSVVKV
UniProt Q58WW2: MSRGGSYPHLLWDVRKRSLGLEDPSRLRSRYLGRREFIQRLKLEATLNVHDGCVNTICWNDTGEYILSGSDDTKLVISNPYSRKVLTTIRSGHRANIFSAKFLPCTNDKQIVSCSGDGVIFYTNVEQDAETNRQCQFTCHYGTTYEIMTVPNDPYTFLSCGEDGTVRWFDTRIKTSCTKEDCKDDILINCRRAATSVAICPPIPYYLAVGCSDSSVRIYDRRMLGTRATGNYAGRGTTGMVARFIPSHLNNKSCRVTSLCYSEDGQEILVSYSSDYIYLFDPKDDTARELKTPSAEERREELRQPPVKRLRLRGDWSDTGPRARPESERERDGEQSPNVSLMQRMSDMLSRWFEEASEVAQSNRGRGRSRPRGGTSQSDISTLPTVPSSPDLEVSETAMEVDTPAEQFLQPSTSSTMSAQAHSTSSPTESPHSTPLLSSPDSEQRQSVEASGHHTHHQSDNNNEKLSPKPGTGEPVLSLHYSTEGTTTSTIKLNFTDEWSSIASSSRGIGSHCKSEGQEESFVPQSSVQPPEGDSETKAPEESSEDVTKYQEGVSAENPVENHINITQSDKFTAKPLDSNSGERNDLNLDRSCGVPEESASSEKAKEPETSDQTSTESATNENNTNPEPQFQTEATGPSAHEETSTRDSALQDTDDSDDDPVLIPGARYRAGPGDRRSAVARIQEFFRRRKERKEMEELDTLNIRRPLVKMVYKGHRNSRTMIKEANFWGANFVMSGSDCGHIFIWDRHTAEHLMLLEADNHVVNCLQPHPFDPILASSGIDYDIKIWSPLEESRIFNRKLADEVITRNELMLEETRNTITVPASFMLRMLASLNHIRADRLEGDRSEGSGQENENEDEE
UniProt Q6DN90: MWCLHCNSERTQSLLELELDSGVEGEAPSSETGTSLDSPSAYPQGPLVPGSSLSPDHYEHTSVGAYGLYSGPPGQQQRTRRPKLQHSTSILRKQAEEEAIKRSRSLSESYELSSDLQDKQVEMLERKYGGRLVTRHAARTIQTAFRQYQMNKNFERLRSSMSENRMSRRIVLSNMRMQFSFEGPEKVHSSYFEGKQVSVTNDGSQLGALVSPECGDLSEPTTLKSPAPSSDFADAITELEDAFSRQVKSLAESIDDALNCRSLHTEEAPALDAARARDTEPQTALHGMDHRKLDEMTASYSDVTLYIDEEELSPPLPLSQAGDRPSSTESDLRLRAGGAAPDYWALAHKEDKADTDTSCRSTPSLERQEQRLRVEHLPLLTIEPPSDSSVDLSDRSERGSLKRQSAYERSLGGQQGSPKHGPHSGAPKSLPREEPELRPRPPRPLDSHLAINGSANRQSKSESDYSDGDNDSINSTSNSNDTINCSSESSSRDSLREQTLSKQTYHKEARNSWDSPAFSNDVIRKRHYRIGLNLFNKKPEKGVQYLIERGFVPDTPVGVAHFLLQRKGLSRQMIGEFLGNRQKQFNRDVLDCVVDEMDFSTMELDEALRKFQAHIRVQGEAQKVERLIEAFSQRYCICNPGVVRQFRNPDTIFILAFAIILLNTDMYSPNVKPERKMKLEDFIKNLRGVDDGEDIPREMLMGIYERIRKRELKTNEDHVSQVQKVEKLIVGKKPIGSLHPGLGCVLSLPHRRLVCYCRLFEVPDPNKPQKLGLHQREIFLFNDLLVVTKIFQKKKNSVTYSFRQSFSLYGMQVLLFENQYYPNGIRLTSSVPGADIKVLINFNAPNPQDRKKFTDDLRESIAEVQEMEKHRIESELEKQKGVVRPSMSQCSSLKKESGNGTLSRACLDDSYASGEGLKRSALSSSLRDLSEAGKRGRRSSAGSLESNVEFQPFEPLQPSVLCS
UniProt Q5VT06: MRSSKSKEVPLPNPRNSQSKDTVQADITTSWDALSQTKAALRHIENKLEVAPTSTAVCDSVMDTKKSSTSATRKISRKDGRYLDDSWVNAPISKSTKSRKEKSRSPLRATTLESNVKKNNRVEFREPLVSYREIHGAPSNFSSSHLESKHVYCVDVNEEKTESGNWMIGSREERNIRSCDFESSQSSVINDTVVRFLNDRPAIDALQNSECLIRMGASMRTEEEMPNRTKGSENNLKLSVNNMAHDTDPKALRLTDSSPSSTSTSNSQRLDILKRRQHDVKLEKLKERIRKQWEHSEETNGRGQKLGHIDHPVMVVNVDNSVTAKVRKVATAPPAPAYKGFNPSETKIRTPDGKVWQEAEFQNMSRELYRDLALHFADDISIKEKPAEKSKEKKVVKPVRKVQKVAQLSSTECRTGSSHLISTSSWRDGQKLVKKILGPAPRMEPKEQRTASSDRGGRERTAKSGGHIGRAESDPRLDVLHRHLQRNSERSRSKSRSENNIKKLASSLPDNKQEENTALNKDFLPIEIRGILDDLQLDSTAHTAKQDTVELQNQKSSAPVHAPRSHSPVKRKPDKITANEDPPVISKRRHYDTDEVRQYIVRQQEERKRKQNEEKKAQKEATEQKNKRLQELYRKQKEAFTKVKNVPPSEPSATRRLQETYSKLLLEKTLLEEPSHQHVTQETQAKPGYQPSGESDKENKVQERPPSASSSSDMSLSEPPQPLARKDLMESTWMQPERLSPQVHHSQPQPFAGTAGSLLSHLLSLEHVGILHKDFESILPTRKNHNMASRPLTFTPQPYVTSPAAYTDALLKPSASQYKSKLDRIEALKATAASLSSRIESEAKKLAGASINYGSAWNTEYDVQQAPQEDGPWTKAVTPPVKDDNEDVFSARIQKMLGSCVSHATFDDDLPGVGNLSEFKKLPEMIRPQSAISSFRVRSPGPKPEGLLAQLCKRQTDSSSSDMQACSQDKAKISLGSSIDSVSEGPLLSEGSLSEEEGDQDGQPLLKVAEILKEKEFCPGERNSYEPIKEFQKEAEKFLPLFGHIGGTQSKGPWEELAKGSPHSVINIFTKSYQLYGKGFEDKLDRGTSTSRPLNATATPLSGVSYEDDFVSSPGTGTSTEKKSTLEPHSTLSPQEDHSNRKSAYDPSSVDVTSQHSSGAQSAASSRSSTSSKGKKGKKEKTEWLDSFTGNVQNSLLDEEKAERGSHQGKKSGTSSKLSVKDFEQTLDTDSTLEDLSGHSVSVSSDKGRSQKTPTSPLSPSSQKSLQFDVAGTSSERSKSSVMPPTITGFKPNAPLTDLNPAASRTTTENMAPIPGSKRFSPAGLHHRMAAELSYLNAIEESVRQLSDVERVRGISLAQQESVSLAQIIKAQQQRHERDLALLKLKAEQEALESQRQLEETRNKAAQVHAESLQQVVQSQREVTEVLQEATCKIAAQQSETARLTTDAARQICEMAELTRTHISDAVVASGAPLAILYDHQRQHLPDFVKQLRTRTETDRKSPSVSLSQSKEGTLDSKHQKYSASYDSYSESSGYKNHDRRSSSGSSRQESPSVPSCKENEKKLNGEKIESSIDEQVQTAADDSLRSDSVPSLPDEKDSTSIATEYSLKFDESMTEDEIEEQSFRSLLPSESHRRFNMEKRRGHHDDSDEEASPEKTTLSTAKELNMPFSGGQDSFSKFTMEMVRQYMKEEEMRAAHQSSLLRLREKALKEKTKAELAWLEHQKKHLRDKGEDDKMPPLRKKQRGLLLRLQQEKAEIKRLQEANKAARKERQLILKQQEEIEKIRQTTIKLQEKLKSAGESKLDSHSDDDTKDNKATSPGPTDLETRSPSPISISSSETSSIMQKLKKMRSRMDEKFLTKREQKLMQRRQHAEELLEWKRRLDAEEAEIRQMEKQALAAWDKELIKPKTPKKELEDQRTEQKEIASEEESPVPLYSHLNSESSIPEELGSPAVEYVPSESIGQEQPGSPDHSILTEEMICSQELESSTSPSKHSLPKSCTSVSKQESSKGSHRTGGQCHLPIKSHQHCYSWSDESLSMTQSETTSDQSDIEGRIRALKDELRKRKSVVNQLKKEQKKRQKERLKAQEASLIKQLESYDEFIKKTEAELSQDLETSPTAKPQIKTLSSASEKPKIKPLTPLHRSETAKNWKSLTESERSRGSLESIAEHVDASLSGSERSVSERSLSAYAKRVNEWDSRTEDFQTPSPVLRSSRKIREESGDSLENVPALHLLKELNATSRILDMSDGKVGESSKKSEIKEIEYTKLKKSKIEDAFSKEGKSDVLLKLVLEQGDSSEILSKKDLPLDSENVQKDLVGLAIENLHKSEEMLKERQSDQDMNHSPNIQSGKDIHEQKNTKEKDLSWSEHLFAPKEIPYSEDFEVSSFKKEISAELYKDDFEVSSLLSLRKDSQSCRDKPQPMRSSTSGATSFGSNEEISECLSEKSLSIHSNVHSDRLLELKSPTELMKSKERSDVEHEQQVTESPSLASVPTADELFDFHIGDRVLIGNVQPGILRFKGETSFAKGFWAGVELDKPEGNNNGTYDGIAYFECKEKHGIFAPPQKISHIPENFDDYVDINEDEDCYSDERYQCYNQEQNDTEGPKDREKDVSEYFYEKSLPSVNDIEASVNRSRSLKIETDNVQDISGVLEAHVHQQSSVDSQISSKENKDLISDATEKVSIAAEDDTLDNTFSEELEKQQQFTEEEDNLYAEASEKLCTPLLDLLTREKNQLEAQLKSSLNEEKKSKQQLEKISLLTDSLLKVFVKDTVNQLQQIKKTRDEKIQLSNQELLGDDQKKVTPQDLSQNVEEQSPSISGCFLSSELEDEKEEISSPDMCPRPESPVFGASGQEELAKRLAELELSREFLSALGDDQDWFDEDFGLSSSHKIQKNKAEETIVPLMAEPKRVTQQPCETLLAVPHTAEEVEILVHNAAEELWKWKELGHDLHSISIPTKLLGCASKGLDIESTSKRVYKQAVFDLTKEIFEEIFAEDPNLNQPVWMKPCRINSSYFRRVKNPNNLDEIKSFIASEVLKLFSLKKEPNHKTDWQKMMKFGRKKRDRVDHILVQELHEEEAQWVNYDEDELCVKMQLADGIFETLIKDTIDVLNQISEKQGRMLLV

compound: COC(=O)C#Cc1ccccc1 [methyl 3-phenylpropiolate]; experiment: log2 ratio of iodoacetamide-alkyne labeling of the cysteine site, DMSO over compound (competition); higher = stronger covalent engagement of the cysteine by the compound, active = 1 or more; settings: 500 µM; treatment time 1 h; system: HEK293T cell lysate
In short: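 HEK293T lysate (2 mg/mL) was treated with DMSO or electrophile (500 µM, 1 h, ambient temperature), then iodoacetamide alkyne (1 h), clicked to sCIP-TMT reagents, pooled, trypsin-digested overnight at 37 °C, streptavidin-enriched and acid-eluted. Peptides were run on Orbitrap Eclipse LC-MS/MS with FAIMS and quantified in FragPipe. The log2 competition ratio per cysteine is mean control-channel over mean compound-channel reporter intensity. Duplicate channels and three replicates were used, and cysteines quantified in only one replicate were excluded.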

log2 ratio of iodoacetamide-alkyne labeling, inactive:
HERC4 C60 (UniProt Q5GLZ8) 0.254
PITRM1 C780 (UniProt Q5JRX3) 0.31
THADA C144 (UniProt Q6YHU6) 0.24
ZC3H14 C540 (UniProt Q6PJT7) 0.465
UniProt Q5FWF4_C811 -0.337
TRIM65 C500 (UniProt Q6PJ69) 0.327
ATPAF1 C121 (UniProt Q5TC12) 0.192
RRP12 C261 (UniProt Q5JTH9) 0.53
MTHFD1L C906 (UniProt Q6UB35) -0.336
RNF20 C905 (UniProt Q5VTR2) 0.383
DARS2 C590 (UniProt Q6PI48) 0.208
TAPT1 C562 (UniProt Q6NXT6) 0.285
UniProt Q5TAX3_C776 0.631
DNTTIP2 C618 (UniProt Q5QJE6) 0.081
FBXL19 C142 (UniProt Q6PCT2) 0.0713
MTHFD1L C828 (UniProt Q6UB35) -0.0518
CEP128 C915 (UniProt Q6ZU80) 0.335
LARP1 C238 (UniProt Q6PKG0) 0.426
SLC25A24 C330 (UniProt Q6NUK1) 0.223
NT5DC1 C179 (UniProt Q5TFE4) 0.191
INTS3 C498 (UniProt Q68E01) 0.142
NIPBL C1876 (UniProt Q6KC79) 0.17
TJAP1 C196 (UniProt Q5JTD0) 0.14
UniProt Q5T8A7_C245 -0.153
UniProt Q5VUJ6_C145 0.408
UniProt Q63HN8_C3008 0.717
ATPAF1 C321 (UniProt Q5TC12) 0.464
UniProt Q58WW2_C593 0.295
UniProt Q5W0B1_C321 0.63
NUP188 C1294 (UniProt Q5SRE5) 0.463
NFXL1 C528 (UniProt Q6ZNB6) -0.174
HSDL2 C11 (UniProt Q6YN16) 0.0294
TJAP1 C172 (UniProt Q5JTD0) 0.251
IQSEC1 C260 (UniProt Q6DN90) 0.349
CEP350 C179 (UniProt Q5VT06) 0.791
UniProt Q5H9R7_C467 0.103
CC2D1A C252 (UniProt Q6P1N0) 0.427
UniProt Q5TAX3_C1226 0.391

A portion taken from the entries so far:
log2 ratio of iodoacetamide-alkyne labeling, inactive:
ATPAF1 C321 (UniProt Q5TC12) 0.464
UniProt Q58WW2_C593 0.295
